This note sets out measurements from patent US20100267626A1, “METHODS AND COMPOSITIONS FOR MEASURING WNT ACTIVATION AND FOR TREATING WNT-RELATED CANCERS” (Novartis AG, priority 2007, published 2010).

By UniProt entry, the sequences of proteins in these tests, tags left out. Where a name states a change or a piece, a line headed by the entry shows the natural chain unless it says otherwise.
UniProt Q9Y2T1: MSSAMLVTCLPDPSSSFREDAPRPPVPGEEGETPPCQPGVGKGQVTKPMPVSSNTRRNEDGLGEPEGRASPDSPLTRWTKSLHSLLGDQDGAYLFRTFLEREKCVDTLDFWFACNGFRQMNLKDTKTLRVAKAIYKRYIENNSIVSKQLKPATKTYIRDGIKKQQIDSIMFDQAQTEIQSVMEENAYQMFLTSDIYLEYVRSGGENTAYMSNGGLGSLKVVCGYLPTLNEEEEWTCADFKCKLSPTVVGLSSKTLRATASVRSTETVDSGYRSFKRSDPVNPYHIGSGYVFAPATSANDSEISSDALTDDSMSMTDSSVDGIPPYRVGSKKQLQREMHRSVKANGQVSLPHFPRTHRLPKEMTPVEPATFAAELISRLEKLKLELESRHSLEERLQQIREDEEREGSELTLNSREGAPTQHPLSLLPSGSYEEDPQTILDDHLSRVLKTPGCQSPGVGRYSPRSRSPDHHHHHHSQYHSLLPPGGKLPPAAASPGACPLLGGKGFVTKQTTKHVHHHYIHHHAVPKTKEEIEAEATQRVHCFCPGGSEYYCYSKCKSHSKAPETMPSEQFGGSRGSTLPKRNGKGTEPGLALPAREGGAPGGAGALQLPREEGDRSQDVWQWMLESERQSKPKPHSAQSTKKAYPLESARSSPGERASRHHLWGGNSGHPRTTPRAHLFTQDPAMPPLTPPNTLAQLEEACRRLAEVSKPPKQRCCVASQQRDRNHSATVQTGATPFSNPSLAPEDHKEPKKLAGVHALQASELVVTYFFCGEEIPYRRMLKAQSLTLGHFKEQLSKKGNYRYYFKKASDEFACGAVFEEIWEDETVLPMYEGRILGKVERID
UniProt O95271: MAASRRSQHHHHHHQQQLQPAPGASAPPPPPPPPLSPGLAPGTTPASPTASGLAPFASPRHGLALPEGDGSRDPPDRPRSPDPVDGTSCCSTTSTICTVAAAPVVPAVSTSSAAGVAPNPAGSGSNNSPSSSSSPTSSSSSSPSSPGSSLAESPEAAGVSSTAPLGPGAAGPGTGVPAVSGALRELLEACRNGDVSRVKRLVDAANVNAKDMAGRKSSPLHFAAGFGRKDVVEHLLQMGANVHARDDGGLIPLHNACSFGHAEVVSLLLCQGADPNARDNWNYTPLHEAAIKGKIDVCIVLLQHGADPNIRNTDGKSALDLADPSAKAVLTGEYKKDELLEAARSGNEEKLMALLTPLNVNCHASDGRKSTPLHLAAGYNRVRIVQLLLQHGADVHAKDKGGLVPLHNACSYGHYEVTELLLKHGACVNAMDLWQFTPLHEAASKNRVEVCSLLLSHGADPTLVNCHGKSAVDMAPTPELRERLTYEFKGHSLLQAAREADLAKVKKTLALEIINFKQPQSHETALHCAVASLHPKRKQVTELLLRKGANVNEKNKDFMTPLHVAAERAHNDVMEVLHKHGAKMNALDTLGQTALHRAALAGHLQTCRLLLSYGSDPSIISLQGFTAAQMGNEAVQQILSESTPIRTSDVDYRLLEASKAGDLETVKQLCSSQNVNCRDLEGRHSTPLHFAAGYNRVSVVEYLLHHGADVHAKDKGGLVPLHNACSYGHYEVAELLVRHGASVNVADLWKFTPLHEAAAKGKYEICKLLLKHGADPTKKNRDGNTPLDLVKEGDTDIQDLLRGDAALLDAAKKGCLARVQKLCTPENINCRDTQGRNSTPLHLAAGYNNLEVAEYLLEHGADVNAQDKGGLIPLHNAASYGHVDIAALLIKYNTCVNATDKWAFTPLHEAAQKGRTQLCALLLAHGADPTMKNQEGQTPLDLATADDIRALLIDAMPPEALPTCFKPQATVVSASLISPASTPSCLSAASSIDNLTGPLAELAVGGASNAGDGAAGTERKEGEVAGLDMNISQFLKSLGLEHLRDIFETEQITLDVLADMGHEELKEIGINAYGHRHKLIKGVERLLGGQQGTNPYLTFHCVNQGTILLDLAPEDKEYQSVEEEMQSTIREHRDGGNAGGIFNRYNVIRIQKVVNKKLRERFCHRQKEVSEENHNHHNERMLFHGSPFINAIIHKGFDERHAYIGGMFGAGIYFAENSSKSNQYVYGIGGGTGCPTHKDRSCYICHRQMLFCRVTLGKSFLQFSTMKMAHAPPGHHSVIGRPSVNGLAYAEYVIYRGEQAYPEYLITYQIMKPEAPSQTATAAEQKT
UniProt O35625: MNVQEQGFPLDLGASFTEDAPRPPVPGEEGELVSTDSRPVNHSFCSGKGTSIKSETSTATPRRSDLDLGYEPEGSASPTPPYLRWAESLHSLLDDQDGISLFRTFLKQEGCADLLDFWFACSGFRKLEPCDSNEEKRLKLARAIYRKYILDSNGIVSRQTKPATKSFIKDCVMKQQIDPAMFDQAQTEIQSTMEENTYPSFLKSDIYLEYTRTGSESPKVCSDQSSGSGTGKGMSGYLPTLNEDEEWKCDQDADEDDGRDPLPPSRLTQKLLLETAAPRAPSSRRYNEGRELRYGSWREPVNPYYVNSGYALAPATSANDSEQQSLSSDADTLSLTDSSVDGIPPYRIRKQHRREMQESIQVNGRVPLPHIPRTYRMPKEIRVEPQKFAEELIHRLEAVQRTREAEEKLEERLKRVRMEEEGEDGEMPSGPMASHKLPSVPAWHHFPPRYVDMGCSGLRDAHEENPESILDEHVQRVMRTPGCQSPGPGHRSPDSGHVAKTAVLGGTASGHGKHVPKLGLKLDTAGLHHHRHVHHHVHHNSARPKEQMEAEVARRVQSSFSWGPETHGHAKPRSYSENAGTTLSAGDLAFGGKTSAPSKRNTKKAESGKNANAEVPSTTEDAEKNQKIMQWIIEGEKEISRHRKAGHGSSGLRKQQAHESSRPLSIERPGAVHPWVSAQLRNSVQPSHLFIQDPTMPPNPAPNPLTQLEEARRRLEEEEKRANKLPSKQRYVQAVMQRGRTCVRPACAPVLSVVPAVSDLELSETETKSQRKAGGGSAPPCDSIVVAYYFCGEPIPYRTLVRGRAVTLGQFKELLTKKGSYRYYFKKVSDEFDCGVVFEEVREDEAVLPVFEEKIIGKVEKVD

No constants are given. Whether binding was seen depends on the method and setting. For part of these data: Binding seen in cells or lysates may run through a third protein. Some binding calls cover weakened binding; strength is not graded here.

Experiment [1] addresses Axin2, endogenous protein in SW480 cells (human) (UniProt Q9Y2T1). Kind of experiment: co-immunoprecipitation of endogenous proteins from SW480 lysate.
Experiment [2] shares this target. The experiment in a line: co-immunoprecipitation with anti-Axin2 antibody from SW480 lysate, immunoblot.
Experiment [3] addresses TNKS1 (human), yeast two-hybrid prey in pGAD-T7 (human) (UniProt O95271). Kind of experiment: yeast two-hybrid with Axin1 fragments.

B1: TNKS2 (Tankyrase 2), endogenous protein in SW480 cells (enzyme, human, UniProt Q9H2K2 1-1166, looked up)
chain: MSGRRCAGGGAACASAAAEAVEPAARELFEACRNGDVERVKRLVTPEKVNSRDTAGRKSTPLHFAAGFGRKDVVEYLLQNGANVQARDDGGLIPLHNACSFGHAEVVNLLLRHGADPNARDNWNYTPLHEAAIKGKIDVCIVLLQHGAEPTIRNTDGRTALDLADPSAKAVLTGEYKKDELLESARSGNEEKMMALLTPLNVNCHASDGRKSTPLHLAAGYNRVKIVQLLLQHGADVHAKDKGDLVPLHNACSYGHYEVTELLVKHGACVNAMDLWQFTPLHEAASKNRVEVCSLLLSYGADPTLLNCHNKSAIDLAPTPQLKERLAYEFKGHSLLQAAREADVTRIKKHLSLEMVNFKHPQTHETALHCAAASPYPKRKQICELLLRKGANINEKTKEFLTPLHVASEKAHNDVVEVVVKHEAKVNALDNLGQTSLHRAAYCGHLQTCRLLLSYGCDPNIISLQGFTALQMGNENVQQLLQEGISLGNSEADRQLLEAAKAGDVETVKKLCTVQSVNCRDIEGRQSTPLHFAAGYNRVSVVEYLLQHGADVHAKDKGGLVPLHNACSYGHYEVAELLVKHGAVVNVADLWKFTPLHEAAAKGKYEICKLLLQHGADPTKKNRDGNTPLDLVKDGDTDIQDLLRGDAALLDAAKKGCLARVKKLSSPDNVNCRDTQGRHSTPLHLAAGYNNLEVAEYLLQHGADVNAQDKGGLIPLHNAASYGHVDVAALLIKYNACVNATDKWAFTPLHEAAQKGRTQLCALLLAHGADPTLKNQEGQTPLDLVSADDVSALLTAAMPPSALPSCYKPQVLNGVRSPGATADALSSGPSSPSSLSAASSLDNLSGSFSELSSVVSSSGTEGASSLEKKEVPGVDFSITQFVRNLGLEHLMDIFEREQITLDVLVEMGHKELKEIGINAYGHRHKLIKGVERLISGQQGLNPYLTLNTSGSGTILIDLSPDDKEFQSVEEEMQSTVREHRDGGHAGGIFNRYNILKIQKVCNKKLWERYTHRRKEVSEENHNHANERMLFHGSPFVNAIIHKGFDERHAYIGGMFGAGIYFAENSSKSNQYVYGIGGGTGCPVHKDRSCYICHRQLLFCRVTLGKSFLQFSAMKMAHSPPGHHSVTGRPSVNGLALAEYVIYRGEQAYPEYLITYQIMRPEGMVDG
Turning to B1, the binding result in experiment [1] and in experiment [2] was “binds” each time.

On to DAPRPPVPGEEG (peptide, UniProt O35625 19-30, looked up, not shown: large carriers) [Axin1 N-terminal region amino acid 19-30 (TBD, Tankyrase-Binding Domain), yeast two-hybrid fragment], for which the binding result in experiment [3] was “binds”.
